# Some of the results follow. The data scatter; read single values as rough.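 Many melting curves are irregular; where none melted, Tm was taken as 64 °C.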
# Protein sequences, listed by entry. Tags and fused reporters are not part of them. Lines headed by an entry give the natural chain unless they say otherwise; changes in a name come on top.
# UniProt P32970: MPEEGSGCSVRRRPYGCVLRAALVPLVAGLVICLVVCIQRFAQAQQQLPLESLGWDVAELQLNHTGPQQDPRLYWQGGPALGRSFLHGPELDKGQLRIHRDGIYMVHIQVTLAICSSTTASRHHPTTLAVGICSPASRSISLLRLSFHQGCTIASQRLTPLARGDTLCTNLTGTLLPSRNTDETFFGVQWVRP
# UniProt P35790, whole entry, looked up: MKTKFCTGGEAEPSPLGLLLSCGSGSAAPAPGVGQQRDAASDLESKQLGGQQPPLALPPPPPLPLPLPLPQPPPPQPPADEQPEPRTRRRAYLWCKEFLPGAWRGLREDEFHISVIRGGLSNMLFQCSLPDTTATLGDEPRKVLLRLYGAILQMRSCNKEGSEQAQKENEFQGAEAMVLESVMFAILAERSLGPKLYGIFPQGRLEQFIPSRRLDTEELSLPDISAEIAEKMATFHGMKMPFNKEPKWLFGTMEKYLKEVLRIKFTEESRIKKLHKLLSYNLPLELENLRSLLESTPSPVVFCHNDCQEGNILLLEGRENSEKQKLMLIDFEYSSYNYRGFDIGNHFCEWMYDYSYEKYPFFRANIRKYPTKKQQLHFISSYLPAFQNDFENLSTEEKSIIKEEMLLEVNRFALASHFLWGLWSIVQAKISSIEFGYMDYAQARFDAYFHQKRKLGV
# UniProt P36543, whole entry: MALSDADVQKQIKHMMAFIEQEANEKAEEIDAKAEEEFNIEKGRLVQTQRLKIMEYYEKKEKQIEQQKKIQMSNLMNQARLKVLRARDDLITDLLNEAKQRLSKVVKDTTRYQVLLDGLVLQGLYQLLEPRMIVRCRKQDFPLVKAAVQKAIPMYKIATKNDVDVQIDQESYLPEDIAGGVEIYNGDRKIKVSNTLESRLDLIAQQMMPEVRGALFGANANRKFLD
# UniProt P28066: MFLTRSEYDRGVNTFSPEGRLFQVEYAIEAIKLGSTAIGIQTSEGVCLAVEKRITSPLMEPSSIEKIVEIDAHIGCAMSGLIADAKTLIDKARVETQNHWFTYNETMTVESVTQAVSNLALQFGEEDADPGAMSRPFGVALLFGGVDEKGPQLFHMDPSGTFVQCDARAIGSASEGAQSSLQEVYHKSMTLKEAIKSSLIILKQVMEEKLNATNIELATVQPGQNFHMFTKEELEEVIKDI
# UniProt P35580, whole entry: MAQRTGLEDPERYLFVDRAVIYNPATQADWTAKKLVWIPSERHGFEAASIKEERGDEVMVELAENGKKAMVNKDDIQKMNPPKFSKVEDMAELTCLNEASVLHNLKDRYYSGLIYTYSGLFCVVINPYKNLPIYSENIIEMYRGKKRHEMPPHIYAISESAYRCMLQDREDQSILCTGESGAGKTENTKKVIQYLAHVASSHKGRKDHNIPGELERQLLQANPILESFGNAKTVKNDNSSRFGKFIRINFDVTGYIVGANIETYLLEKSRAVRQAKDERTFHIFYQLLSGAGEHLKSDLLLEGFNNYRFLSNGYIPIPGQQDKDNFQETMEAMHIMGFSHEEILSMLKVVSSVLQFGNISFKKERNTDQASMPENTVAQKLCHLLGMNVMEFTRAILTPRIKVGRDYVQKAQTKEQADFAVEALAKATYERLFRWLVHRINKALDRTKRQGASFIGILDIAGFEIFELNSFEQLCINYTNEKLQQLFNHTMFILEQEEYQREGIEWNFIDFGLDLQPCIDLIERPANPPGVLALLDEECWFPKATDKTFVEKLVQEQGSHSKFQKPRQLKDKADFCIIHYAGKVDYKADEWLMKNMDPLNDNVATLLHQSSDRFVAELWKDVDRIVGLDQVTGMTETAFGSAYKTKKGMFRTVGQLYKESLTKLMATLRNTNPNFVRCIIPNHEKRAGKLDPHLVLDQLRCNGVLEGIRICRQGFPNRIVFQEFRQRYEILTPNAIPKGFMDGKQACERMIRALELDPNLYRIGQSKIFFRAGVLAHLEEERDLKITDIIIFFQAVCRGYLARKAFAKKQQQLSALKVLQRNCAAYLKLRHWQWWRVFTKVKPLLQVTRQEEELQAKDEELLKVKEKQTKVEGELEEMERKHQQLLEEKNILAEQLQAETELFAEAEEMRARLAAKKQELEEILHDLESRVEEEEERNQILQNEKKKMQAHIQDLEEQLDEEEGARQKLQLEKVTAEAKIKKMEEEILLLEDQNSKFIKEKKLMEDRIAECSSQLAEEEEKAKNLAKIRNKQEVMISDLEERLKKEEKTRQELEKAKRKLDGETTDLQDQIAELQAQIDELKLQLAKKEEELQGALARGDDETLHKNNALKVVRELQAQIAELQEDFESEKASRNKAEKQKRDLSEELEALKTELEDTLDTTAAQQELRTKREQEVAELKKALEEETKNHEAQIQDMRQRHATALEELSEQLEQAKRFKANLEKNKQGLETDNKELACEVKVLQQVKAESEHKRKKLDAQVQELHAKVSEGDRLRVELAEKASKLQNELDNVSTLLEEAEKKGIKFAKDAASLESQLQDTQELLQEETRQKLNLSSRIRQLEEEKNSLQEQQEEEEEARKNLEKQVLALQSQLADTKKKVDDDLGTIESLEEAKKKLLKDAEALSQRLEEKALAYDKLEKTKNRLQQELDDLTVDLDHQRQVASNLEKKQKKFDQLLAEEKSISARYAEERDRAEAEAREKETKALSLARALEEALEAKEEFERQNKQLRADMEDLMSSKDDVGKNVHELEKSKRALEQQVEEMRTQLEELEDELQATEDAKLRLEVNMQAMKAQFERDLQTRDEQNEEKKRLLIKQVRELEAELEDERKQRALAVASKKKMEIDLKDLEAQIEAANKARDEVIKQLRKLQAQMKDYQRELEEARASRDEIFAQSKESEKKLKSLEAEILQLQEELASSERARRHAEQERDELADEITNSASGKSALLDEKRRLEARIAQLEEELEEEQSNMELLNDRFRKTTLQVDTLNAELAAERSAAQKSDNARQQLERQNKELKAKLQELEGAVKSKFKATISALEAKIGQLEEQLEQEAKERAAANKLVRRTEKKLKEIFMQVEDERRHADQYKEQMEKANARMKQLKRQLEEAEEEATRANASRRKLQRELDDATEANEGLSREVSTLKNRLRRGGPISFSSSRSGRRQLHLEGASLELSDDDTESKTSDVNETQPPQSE
# UniProt P27694, whole entry: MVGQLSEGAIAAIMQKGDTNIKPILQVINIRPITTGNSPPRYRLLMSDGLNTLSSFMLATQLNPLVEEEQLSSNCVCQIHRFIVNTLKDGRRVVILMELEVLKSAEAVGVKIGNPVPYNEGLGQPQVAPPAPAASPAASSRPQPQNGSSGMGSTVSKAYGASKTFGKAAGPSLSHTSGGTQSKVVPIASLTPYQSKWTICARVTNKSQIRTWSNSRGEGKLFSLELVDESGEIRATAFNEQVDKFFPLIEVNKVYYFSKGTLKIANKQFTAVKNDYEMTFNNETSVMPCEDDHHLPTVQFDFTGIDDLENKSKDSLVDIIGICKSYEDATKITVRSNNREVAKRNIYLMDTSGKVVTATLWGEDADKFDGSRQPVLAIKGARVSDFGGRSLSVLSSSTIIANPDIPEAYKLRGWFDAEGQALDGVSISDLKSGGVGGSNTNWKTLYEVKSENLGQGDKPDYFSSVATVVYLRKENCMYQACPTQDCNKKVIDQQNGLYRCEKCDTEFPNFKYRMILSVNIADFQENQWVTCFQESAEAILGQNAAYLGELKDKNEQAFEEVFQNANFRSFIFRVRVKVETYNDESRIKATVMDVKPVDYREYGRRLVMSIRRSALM
# UniProt P25054, whole entry: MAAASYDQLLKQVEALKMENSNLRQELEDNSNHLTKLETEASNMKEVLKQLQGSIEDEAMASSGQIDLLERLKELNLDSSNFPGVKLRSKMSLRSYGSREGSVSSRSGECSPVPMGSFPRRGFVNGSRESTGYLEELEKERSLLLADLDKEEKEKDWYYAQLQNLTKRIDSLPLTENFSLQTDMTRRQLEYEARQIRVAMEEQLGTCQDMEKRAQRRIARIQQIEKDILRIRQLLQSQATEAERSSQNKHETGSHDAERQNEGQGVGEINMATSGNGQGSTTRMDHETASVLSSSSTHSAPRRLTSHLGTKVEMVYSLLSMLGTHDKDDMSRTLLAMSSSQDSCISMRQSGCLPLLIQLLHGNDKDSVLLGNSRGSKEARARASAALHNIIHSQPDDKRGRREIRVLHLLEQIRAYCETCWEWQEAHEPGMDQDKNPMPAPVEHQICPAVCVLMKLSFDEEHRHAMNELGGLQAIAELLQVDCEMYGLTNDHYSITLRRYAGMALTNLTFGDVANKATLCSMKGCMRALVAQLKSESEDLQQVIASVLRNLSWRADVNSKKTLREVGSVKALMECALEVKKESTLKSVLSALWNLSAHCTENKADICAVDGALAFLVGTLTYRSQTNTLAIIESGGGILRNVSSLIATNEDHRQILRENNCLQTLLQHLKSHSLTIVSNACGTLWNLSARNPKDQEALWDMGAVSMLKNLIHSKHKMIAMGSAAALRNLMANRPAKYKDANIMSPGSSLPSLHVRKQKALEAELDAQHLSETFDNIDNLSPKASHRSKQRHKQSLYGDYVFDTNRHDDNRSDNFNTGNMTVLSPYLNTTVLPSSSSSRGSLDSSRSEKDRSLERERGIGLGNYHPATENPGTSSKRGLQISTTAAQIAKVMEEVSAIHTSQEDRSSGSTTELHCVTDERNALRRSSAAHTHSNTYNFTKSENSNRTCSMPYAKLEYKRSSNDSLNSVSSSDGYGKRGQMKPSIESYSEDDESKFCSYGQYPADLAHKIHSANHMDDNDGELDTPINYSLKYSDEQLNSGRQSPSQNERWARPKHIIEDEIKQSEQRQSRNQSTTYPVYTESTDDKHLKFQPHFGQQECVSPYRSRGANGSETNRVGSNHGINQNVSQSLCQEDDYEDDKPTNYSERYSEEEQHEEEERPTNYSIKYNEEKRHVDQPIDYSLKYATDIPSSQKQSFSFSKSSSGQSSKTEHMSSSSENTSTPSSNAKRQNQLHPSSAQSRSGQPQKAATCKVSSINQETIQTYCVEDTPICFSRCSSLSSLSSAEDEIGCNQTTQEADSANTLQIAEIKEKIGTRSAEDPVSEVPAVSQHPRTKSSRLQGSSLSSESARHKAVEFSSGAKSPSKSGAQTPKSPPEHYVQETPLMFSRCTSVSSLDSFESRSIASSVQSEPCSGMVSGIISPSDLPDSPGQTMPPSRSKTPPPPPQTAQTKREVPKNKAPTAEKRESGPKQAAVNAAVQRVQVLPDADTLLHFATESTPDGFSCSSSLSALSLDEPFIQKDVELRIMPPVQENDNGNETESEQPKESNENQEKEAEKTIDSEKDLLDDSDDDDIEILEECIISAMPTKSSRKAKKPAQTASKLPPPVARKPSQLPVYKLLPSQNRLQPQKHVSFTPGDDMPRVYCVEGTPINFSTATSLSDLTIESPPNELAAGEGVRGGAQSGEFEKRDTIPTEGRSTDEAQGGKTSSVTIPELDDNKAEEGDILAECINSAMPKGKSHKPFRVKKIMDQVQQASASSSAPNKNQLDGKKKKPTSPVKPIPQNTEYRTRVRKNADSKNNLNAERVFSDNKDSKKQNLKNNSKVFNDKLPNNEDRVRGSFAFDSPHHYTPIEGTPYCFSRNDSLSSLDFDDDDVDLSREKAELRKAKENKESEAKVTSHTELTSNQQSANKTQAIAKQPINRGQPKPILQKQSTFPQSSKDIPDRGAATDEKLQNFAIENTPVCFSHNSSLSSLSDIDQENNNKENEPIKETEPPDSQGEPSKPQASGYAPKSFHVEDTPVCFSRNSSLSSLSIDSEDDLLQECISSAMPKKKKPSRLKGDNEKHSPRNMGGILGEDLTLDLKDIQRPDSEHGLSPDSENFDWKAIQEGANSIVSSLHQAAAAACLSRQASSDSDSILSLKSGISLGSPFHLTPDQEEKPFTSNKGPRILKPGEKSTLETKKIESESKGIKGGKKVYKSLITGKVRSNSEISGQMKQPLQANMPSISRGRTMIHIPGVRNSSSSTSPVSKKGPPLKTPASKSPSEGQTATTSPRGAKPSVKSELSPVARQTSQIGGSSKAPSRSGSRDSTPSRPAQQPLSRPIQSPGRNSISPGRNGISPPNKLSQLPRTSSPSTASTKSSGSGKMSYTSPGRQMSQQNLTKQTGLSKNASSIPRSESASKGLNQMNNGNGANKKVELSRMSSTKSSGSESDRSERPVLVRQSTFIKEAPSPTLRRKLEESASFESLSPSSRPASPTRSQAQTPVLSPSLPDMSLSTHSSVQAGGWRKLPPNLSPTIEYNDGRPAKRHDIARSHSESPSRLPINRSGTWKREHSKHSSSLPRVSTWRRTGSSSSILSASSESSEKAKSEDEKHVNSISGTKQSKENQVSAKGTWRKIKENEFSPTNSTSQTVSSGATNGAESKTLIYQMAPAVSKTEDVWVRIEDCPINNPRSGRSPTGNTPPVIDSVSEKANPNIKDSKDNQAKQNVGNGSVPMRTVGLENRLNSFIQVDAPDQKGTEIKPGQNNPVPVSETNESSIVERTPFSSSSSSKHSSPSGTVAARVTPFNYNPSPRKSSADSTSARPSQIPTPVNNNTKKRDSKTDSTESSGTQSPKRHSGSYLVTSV
# Compound: CCc1cnccc1C(=O)Nc1cc2c(cc1F)NC(=O)CC2
# Assay: melting temperature shift (DMSO Tm minus MBE1-treated Tm) in cellular thermal proteome profiling; higher = less thermal stabilization by MBE1 (negative = stabilized by MBE1)
# Settings: A375; MBE1 concentration: 100 nM
row,Target,melting temperature shift [°C]
1,MPST (UniProt P25325),-0.0423
2,UniProt P23468,1.53
3,PYCR1 (UniProt P32322),-1.66
4,ERP29 (UniProt P30040),-1.26
5,UniProt P27987,-1.01
6,CD70 (UniProt P32970),-3.44
7,CHKA (UniProt P35790),-1.19
8,TYK2 (UniProt P29597),12
9,RPL10 (UniProt P27635),-1.07
10,UniProt P35612,-1.97
11,ELF1 (UniProt P32519),-0.41
12,ATP6V1E1 (UniProt P36543),-1.01
13,ATP5F1 (UniProt P24539),-1.73
14,PSMA5 (UniProt P28066),-1.22
15,TIA1 (UniProt P31483),-0.543
16,UniProt P27815,-1.15

row,Target,melting temperature shift [°C]
1,RASA1 (UniProt P20936),0.195
2,NUP214 (UniProt P35658),-0.899
3,INPP5B (UniProt P32019),0.055
4,EPHA3 (UniProt P29320),1.28
5,MYH10 (UniProt P35580),0.666
6,EEF1B2 (UniProt P24534),0.69
7,BMPR1A (UniProt P36894),-1.16
8,NDUFS1 (UniProt P28331),0.641
9,RPA1 (UniProt P27694),0.43
10,PGM1 (UniProt P36871),-1.25
11,BCKDHB (UniProt P21953),-0.838
12,GSTM3 (UniProt P21266),-0.819
13,ACSL1 (UniProt P33121),0.159
14,DCK (UniProt P27707),-0.537
15,EPHA2 (UniProt P29317),1.13
16,APC (UniProt P25054),-0.134

# In another format: results already given.
row	Target	melting temperature shift [°C]
2	NUP214 (UniProt P35658)	-0.899
7	BMPR1A (UniProt P36894)	-1.16
8	NDUFS1 (UniProt P28331)	0.641
9	RPA1 (UniProt P27694)	0.43
11	BCKDHB (UniProt P21953)	-0.838
13	ACSL1 (UniProt P33121)	0.159
14	DCK (UniProt P27707)	-0.537
15	EPHA2 (UniProt P29317)	1.13
